Our source for the cell number change and AC50 values is PubChem BioAssay AID2685 (National Center for Advancing Translational Sciences (NCATS), 2010).

This experiment is described as follows: qHTS Assay for Lipid Storage Modulators in Drosophila S3 Cells.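 On cell number change: cells counted by Cell Tracker Red CMTPX staining in the red channel.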 Conditions: BODIPY lipid droplet fluorescence, 18-24 h; for cell number change: measured here: cell count max response, cells fed with added oleic acid. Put shortly: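 Drosophila S3 cells got compounds at several concentrations plus oleic acid (400 uM solution). Laser-scanning cytometry with 488 nm excitation read lipid droplets at 500-530 nm and cells at 575-640 nm. Percent activity was relative to 20 uM Triacsin C.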

Where [1] appears, read: measured here: lipid fluorescence (Fed channel) AC50, cells fed with added oleic acid.
Where [2] appears, read: measured here: cell number channel AC50, cells fed with added oleic acid.

The list shows a part of the results. Further columns of the screen follow, without active or inactive calls. The list favours compounds with an active or inconclusive main result. The note in brackets gives the kind of curve behind each potency; many fits are weak.

For the compound `N#Cc1nc(-c2ccc(F)cc2)oc1NCc1ccccc1`, the cell number change was -29.5%. In addition, under setting [1], the AC50 is 5.17 µM [rising, full curve, poor fit].

For the compound `CCC(=O)Nc1c(-c2ccc(C)cc2)c(=O)c2ccccc2n1C`, the cell number change is -3.55%.

Take `COc1cc(C(=O)NCCCc2nc3ccccc3n2Cc2cc(C)ccc2C)cc(OC)c1OC`: the cell number change is -37.8%. In addition, the AC50 under setting [2] is 23.1 µM [falling, single point]. Under setting [1], the concentration at half-maximal activity (AC50) was 23.1 µM [falling, single point].

As for `COc1ccc(/C=C(\NC(=O)c2ccc(C)cc2)C(=O)NCCCn2ccnc2)cc1`, the cell number change was determined as 21.6%. Further, under setting [1], the AC50 is 0.146 µM [rising, partial curve, poor fit].

As to `CCOC(=O)C1C(O)=CC(=O)CC1c1ccccc1` (stereo not given), the cell number change was -36.8%. Also, under setting [2], the half-maximal activity concentration (AC50) was 7.31 µM [falling, single point]. Moreover, the concentration at half-maximal activity (AC50) under setting [1] is 29.1 µM [rising, single point].

Regarding `O=C(C1CCCN(S(=O)(=O)c2ccccc2)C1)N1CCN(c2ncccn2)CC1` (stereo not given), the AC50 under setting [1] was 23.1 µM [falling, partial curve, poor fit].

On to `COc1ccc(/C=C(\NC(=O)c2ccccc2)C(=O)NCC2CCCO2)cc1` (stereo not given), for which the cell number change was determined as 26.4%. Besides, under setting [2], the AC50 is 7.31 µM [rising, partial curve].

Take `CC(C)NC(=S)N/N=C/c1sc(N2CCCCC2)nc1-c1cccs1`: the AC50 was 1.84 µM [rising, partial curve, poor fit] under setting [2] and 2.59 µM [falling, single point] under setting [1].

Turning to `Cc1ccccc1CN1CCN(CC(=O)NC(C)c2ccccc2)CC1` (stereo not given), the cell number change worked out at 13.9%. Further, the AC50 under setting [1] is 1.64 µM [rising, partial curve, poor fit].

As for `COCCCN(C(=O)Cc1csc(-c2cccc(Cl)c2)n1)c1c(N)n(Cc2ccccc2)c(=O)[nH]c1=O`, the cell number change was -0.283%.

As for `Fc1ccccc1CCNc1nnnn1-c1ccccc1`, the AC50 was 4.11 µM [rising, partial curve] under setting [2] and 6.51 µM [rising, single point] under setting [1].

On to `Cc1ccc2ncnc(NCCCCCC(=O)O)c2c1`, for which the cell number change was 15.3%. Also, the concentration at half-maximal activity (AC50) under setting [1] is 0.00517 µM [falling, full curve].

Regarding `CCOc1ccc(C(=O)N2CCN(Cc3ccccc3)CC2)cc1OCC`, the cell number change is -0.324%. Besides, the half-maximal activity concentration (AC50) under setting [1] was 4.11 µM [rising, full curve, poor fit].

Take `O=c1oc(-c2ccccc2F)nc2c1cnn2-c1ccccc1`: the cell number change was -25.6%. The AC50 under setting [1] was 23.1 µM [falling, partial curve].

On to `CC12Cc3ccc4ccccc4c3C=C1C[N+](C)(C)C2` (stereo not given), for which the cell number change is -46.8%. Also, the AC50 under setting [2] was 0.461 µM [falling, full curve]. For the same compound, under setting [1], the AC50 is 18.4 µM [falling, partial curve].

`Cc1cccc(N2CCN(C(=O)COc3ccc4c(c3)CCC4)CC2C)c1` (stereo not given): the concentration at half-maximal activity (AC50) under setting [1] is 29.1 µM [falling, partial curve, poor fit].

In the case of `COc1ccc(CN(C)Cc2c(O)ccc3ccccc23)cc1`, the cell number change is -23.8%. Also, the AC50 under setting [1] was 29.1 µM [rising, partial curve].

`Nc1nonc1C(=O)NCCNC(=O)c1ccc(Cl)cc1`: the cell number change came to 11.3%. In addition, the concentration at half-maximal activity (AC50) under setting [1] is 29.1 µM [rising, single point].

As to `O=S(=O)(c1ccccc1)N1CCSC1c1ccco1` (stereo not given), the cell number change was -35.6%. Under setting [2], the AC50 is 0.0517 µM [falling, full curve].

For `O=S1(=O)CCN(OCc2ccc(F)cc2Cl)CC1`, the cell number change amounted to 16.4%. For the same compound, the AC50 under setting [2] was 1.84 µM [falling, partial curve]. Moreover, the AC50 under setting [1] is 0.651 µM [falling, partial curve, poor fit].

Take `CN(Cc1c(F)cccc1Cl)c1ccc(S(=O)(=O)N2CCOCC2)cn1`: the cell number change was -37.5%. In addition, the half-maximal activity concentration (AC50) under setting [2] is 4.11 µM [falling, partial curve]. The AC50 under setting [1] is 8.2 µM [falling, partial curve, poor fit].

With `Cc1cc(Cl)ccc1NC(=S)NCc1ccc(S(N)(=O)=O)cc1`, the cell number change was -18.7%.

For the compound `Cc1ccc(S(=O)(=O)N2CCCCC2)cc1C(=O)NCCC1=CCCCC1`, under setting [1], the AC50 is 10.3 µM [falling, partial curve].

Turning to `Cn1nc(C(=O)Nc2cccnc2)c2ccccc2c1=O`, the cell number change amounted to 9.26%. The AC50 under setting [1] was 4.11 µM [rising, full curve].

As to `CCOc1ccc(Br)cc1C(=S)N1CCCC1`, the cell number change is -11.7%.

`COc1ccc(C(NC(=O)CN2C(=O)NC3(CCc4ccccc43)C2=O)c2ccc(OC)cc2)cc1` (stereo not given): the cell number change was -66.1%. Under setting [2], the AC50 is 5.17 µM [falling, single point].

Regarding `O=C(c1cccc(C(=O)N2CCN(c3ccccc3F)CC2)c1)N1CCN(c2ccccc2F)CC1`, the cell number change is -4.77%.

Consider `CCOC(=O)C1CCN(c2cc(C)nc3ccc(OC)cc23)CC1`, for which the cell number change is -1.48%. Further, the half-maximal activity concentration (AC50) under setting [2] is 6.51 µM [rising, single point]. Also, the AC50 under setting [1] was 6.51 µM [rising, single point].

With `COc1ccc(-c2noc(N3CCC(C(=O)Nc4cccc(OC)c4)CC3)n2)cc1`, the cell number change came to 19.3%. Besides, the AC50 under setting [1] is 29.1 µM [falling, single point].

Consider `O=C(CSc1nc2ccccc2c(=O)n1-c1ccccc1)NCC1CCCO1` (stereo not given), for which the cell number change was -1.35%. Also, the concentration at half-maximal activity (AC50) under setting [1] is 29.1 µM [falling, single point].

As to `Cc1ccc(C(=O)c2c3ccc(C(F)(F)F)cc3nn2CCC(N)=O)cc1`, the cell number change is -6.01%. Besides, the concentration at half-maximal activity (AC50) under setting [1] is 0.517 µM [rising, full curve, poor fit].

For `CC1CC(CC(=O)NC(=S)Nc2ccccc2Cl)C(=O)O1` (stereo not given), the cell number change is 9.38%. In addition, the AC50 under setting [1] is 0.82 µM [falling, single point].

As to `CN(C)CCC(O)(c1ccccc1)c1ccccc1`, the cell number change is -113%. Moreover, under setting [2], the AC50 is 29.1 µM [falling, partial curve, poor fit]. Moreover, under setting [1], the AC50 was 0.326 µM [falling, partial curve, poor fit].

For the compound `COCCCN1C(=O)N(c2ccccc2)C(=O)C1CC(=O)Nc1ccccc1` (stereo not given), the cell number change was found to be 18%.

As to `O=C(C1CC(c2ccccc2O)=NO1)N1CCc2ccccc2C1` (stereo not given), the cell number change was found to be 2.71%.

Regarding `CC(OC(=O)c1ccc(F)c(S(=O)(=O)N2CCOCC2)c1)C(=O)NCC1CCCCC1` (stereo not given), the cell number change is 13.3%. Also, the half-maximal activity concentration (AC50) under setting [1] was 4.11 µM [falling, single point].

In the case of `Cc1nc2ccccc2nc(=O)c1NNc1ccccc1`, the cell number change stood at 0.794%.

On to `Oc1ccc2ccccc2c1N=Nc1ccccn1`, for which the cell number change was -98.7%. Besides, the AC50 under setting [2] was 20.6 µM [falling, partial curve]. Besides, the AC50 under setting [1] is 18.4 µM [falling, single point].

For the compound `CC1CC(C)CN(C(=O)c2ccc(S(=O)(=O)N3CCCC3)cc2)C1` (stereo not given), the cell number change stood at 32.2%. Also, the half-maximal activity concentration (AC50) under setting [2] was 35.5 µM [rising, single point].
